Measurements taken from paper PMC11497058, “Ginsenoside Rg3 Restores Mitochondrial Cardiolipin Homeostasis via GRB2 to Prevent Parkinson's Disease” (Advanced Science, 2024).
These are yes or no findings as the source states them, for the method shown. For some assays here: In cells and extracts the contact can be indirect. Some results given as binding are weak or reduced against the parent protein; the word gives no strength.

Amino acid sequences for entries named in this document (tags omitted). Residues count along the entry.
UniProt P62993: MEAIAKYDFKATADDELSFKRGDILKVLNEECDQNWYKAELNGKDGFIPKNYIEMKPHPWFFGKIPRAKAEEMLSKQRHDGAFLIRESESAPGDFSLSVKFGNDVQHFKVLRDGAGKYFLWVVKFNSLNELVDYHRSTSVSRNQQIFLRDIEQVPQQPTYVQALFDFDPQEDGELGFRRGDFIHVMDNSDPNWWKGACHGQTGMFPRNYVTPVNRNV
UniProt P04629, residues 33-796: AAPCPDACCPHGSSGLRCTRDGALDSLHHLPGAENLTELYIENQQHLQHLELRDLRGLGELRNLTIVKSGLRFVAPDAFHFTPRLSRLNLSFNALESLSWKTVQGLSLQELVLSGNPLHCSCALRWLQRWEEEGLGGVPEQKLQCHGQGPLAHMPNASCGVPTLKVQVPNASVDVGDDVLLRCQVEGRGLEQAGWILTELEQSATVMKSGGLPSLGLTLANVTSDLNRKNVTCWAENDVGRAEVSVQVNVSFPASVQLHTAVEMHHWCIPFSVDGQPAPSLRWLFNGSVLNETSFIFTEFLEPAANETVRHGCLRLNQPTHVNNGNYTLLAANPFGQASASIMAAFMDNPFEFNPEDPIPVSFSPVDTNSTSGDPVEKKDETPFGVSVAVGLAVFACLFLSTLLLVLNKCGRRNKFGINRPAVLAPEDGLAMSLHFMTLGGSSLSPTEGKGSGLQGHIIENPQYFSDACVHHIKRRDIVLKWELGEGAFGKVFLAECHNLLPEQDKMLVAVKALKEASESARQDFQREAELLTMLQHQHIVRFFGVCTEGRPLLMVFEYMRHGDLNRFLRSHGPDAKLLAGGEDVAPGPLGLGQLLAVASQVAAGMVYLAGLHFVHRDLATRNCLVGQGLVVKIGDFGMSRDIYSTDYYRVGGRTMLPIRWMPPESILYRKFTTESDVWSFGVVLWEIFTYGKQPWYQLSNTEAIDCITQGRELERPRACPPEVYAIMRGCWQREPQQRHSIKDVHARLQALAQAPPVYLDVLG

Tests used:
[1] = molecular target: Growth Factor Receptor‐Bound Protein 2 (GRB2) (human (endogenous in SH-SY5Y)) (UniProt P62993); experiment: co-IP; SH-SY5Y lysate (RIPA buffer) immunoprecipitated with anti-GRB2 antibody and protein A-agarose, blotted for TRKA and EGFR; cells treated with Rg3 (5 µM), TDF (10 µM) or DMSO (0.1%) for 24 h
[2] = molecular target: Growth Factor Receptor‐Bound Protein 2 (GRB2) (human (endogenous in SH-SY5Y)) (UniProt P62993); experiment: native gel or EMSA; Native PAGE (4%-12% gel, 4 °C) and immunoblotting of SH-SY5Y lysates; cells treated with Rg3 (5 µM), GW441756 (10 µM) or DMSO (0.1%) for 6 h

For “TRKA (Neurotrophic Tyrosine Kinase, Receptor, Type 1) (from UniProt P04629 33-796)”, the binding [1] was “binds” and the binding [2] was “binds”.
